Measurements as given in patent US20240368165A1, “SOLID STATE FORMS OF HYDROCHLORIDE SALT OF ((1S,2S,4R)-4-{4-[(1S)-2,3-DIHYDRO-1H-INDEN-1-YLAMINO]-7H-PYRROLO[2,3-D]PYRIMIDIN-7-YL}-2-HYDROXYCYCLOPENTYL)METHYL SULFAMATE” (Takeda Pharmaceutical Company Limited, priority 2020, published 2024).
At least one structure is not confirmed: it was looked up by name or label, or the drawing left a doubt. Marks after values point to notes of the source that are not given here.

Columns and labels:
[1] = Solid-state stability under accelerated storage, purity via HPLC; format: physicochemical; conditions: hydrochloride; for HPLC Purity (% Area TAK-924), Initial (T-0): before accelerated storage
Method: (§1) Solid-state stability studies of Forms 1, 9, and 12 were performed to assess the relative stability of new anhydrous Forms 9 and 12. Solid samples of each pattern were stored in open and closed glass vials at accelerated conditions (40° C./75% RH open and closed, and 60° C. closed). […]

[2] = Solid-state stability under accelerated storage, polymorphic form via XRPD; format: physicochemical; conditions: hydrochloride; for presence of Form 2 in XRPD overlay after accelerated storage: FIGS. 3A and 3B
Method: as §1

[3] = 40° C./75% RH Closed, T-3.5 Weeks
[4] = 40° C./75% RH Open, T-3.5 Weeks

For `Cl.NS(=O)(=O)OC[C@@H]1C[C@@H](n2ccc3c(N[C@H]4CCc5ccccc54)ncnc32)C[C@@H]1O` [Compound Form 9, ((1S,2S,4R)-4-{4-[(1S)-2,3-dihydro-1H-inden-1-ylamino]-7H-pyrrolo[2,3-d]pyrimidin-7-yl}-2-hydroxycyclopentyl)methyl sulfamate hydrochloride], the “HPLC Purity (% Area TAK-924)” value [1, 3] was 99.4 % Area, the “HPLC Purity change from T-0” value [1, 3] was “(−0.2%)” and the “HPLC Purity (% Area TAK-924)” value ([1]; 40° C./75% RH Closed, T-6 Days) was 98.6* % Area. The “HPLC Purity change from T-0” value ([1]; 40° C./75% RH Closed, T-6 Days) was “(−0.8%)”, the “HPLC Purity (% Area TAK-924)” value [1, 4] was 99.3 % Area and the “HPLC Purity change from T-0” value [1, 4] was “(−0.1%)”. For the same molecule, the “HPLC Purity (% Area TAK-924)” value ([1]; 40° C./75% RH Open, T-6 Days) was 99.4 % Area, the “HPLC Purity change from T-0” value ([1]; 40° C./75% RH Open, T-6 Days) was “(0.0%)” and the “HPLC Purity (% Area TAK-924)” value ([1]; 60° C. (closed), T-3.5 Weeks) was 98.2 % Area. For the same molecule, the “HPLC Purity change from T-0” value ([1]; 60° C. (closed), T-3.5 Weeks) was “(−1.2%)”, the “HPLC Purity (% Area TAK-924)” value ([1]; 60° C. (closed), T-6 Days) was 99.2 % Area and the “HPLC Purity change from T-0” value ([1]; 60° C. (closed), T-6 Days) was “(−0.2%)”. For the same molecule, the “HPLC Purity (% Area TAK-924), Initial (T-0)” value [1] was 99.4 % Area, the “XRPD Results (polymorphic form after accelerated storage)” value (shortened to “XRPD Results”) ([2]; 40° C./75% RH Closed, T-6 Days) was “Form 9” and the “XRPD Results” value ([2]; 60° C. (closed), T-6 Days) was “Form 9”. The “presence of Form 2 in XRPD overlay after accelerated storage” value [2] was “Trace amounts of Form 2 are observed”.

In the case of `Cl.NS(=O)(=O)OC[C@@H]1C[C@@H](n2ccc3c(N[C@H]4CCc5ccccc54)ncnc32)C[C@@H]1O` [Compound Form 12, ((1S,2S,4R)-4-{4-[(1S)-2,3-dihydro-1H-inden-1-ylamino]-7H-pyrrolo[2,3-d]pyrimidin-7-yl}-2-hydroxycyclopentyl)methyl sulfamate hydrochloride], the “HPLC Purity (% Area TAK-924)” value [1, 3] is reported as 98.8 % Area, the “HPLC Purity change from T-0” value [1, 3] is reported as “(−0.2%)” and the “HPLC Purity (% Area TAK-924)” value ([1]; 40° C./75% RH Closed, T-6 Days) is reported as 99.0 % Area. The “HPLC Purity change from T-0” value ([1]; 40° C./75% RH Closed, T-6 Days) was “(0.0%)”, the “HPLC Purity (% Area TAK-924)” value [1, 4] was 98.9 % Area and the “HPLC Purity change from T-0” value [1, 4] was “(−0.1%)”. The “HPLC Purity (% Area TAK-924)” value ([1]; 40° C./75% RH Open, T-6 Days) was 98.9 % Area, the “HPLC Purity change from T-0” value ([1]; 40° C./75% RH Open, T-6 Days) was “(−0.1%)” and the “HPLC Purity (% Area TAK-924)” value ([1]; 60° C. (closed), T-3.5 Weeks) was 97.0 % Area. The “HPLC Purity change from T-0” value ([1]; 60° C. (closed), T-3.5 Weeks) was “(−2.0%)”, the “HPLC Purity (% Area TAK-924)” value ([1]; 60° C. (closed), T-6 Days) was 98.5 % Area and the “HPLC Purity change from T-0” value ([1]; 60° C. (closed), T-6 Days) was “(−0.5%)”. The “HPLC Purity (% Area TAK-924), Initial (T-0)” value [1] was 99.0 % Area, the “XRPD Results” value [2, 3] was “Form 12” and the “XRPD Results” value ([2]; 40° C./75% RH Closed, T-6 Days) was “Form 12”. For the same molecule, the “XRPD Results” value [2, 4] was “Form 12”, the “XRPD Results” value ([2]; 40° C./75% RH Open, T-6 Days) was “Form 12” and the “XRPD Results” value ([2]; 60° C. (closed), T-3.5 Weeks) was “Form 12”. For the same molecule, the “XRPD Results” value ([2]; 60° C. (closed), T-6 Days) was “Form 12” and the “presence of Form 2 in XRPD overlay after accelerated storage” value [2] was “no presence of Form 2”.
